This is one part of the list. The data scatter; read single values as rough.
The targets below were run with ClCC(=O)N[C@H]1CCCc2ccccc12 (assay: log2 mean competition ratio of IA-DTB cysteine labelling (DMSO/compound) (log2 ratio); higher = stronger cysteine engagement by compound). Conditions: 200 µM; treatment time: 4 h; cell line lysate: HEK293T.
Method: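 IA-DTB competitive cysteine chemoproteomics in HEK293T RIPA lysate. Lysates were treated with compound 29 or 30 at 50 or 200 µM for 4 h, then IA-DTB (500 µM, 1 h), trypsin-digested, NeutrAvidin-enriched and analysed by diaPASEF. Competition ratio = intensity DMSO / intensity compound (n=4 treated, n=64 DMSO); binding: mean log2 CR ≥ 1 and p ≤ 0.05 plus QC filters. Target is the cysteine site.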

Sequences of proteins named here, by UniProt entry; tags and fusion partners are left off. A change or cut given only in a name is not applied to a line headed by its entry. Residues count along the entry.
UniProt Q96HA1, 604-629: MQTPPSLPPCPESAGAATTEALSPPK
UniProt Q5H9R7, 195-220: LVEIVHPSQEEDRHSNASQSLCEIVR
UniProt Q9BUI4, 160-185: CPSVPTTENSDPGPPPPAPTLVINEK
UniProt P78527, whole entry, looked up: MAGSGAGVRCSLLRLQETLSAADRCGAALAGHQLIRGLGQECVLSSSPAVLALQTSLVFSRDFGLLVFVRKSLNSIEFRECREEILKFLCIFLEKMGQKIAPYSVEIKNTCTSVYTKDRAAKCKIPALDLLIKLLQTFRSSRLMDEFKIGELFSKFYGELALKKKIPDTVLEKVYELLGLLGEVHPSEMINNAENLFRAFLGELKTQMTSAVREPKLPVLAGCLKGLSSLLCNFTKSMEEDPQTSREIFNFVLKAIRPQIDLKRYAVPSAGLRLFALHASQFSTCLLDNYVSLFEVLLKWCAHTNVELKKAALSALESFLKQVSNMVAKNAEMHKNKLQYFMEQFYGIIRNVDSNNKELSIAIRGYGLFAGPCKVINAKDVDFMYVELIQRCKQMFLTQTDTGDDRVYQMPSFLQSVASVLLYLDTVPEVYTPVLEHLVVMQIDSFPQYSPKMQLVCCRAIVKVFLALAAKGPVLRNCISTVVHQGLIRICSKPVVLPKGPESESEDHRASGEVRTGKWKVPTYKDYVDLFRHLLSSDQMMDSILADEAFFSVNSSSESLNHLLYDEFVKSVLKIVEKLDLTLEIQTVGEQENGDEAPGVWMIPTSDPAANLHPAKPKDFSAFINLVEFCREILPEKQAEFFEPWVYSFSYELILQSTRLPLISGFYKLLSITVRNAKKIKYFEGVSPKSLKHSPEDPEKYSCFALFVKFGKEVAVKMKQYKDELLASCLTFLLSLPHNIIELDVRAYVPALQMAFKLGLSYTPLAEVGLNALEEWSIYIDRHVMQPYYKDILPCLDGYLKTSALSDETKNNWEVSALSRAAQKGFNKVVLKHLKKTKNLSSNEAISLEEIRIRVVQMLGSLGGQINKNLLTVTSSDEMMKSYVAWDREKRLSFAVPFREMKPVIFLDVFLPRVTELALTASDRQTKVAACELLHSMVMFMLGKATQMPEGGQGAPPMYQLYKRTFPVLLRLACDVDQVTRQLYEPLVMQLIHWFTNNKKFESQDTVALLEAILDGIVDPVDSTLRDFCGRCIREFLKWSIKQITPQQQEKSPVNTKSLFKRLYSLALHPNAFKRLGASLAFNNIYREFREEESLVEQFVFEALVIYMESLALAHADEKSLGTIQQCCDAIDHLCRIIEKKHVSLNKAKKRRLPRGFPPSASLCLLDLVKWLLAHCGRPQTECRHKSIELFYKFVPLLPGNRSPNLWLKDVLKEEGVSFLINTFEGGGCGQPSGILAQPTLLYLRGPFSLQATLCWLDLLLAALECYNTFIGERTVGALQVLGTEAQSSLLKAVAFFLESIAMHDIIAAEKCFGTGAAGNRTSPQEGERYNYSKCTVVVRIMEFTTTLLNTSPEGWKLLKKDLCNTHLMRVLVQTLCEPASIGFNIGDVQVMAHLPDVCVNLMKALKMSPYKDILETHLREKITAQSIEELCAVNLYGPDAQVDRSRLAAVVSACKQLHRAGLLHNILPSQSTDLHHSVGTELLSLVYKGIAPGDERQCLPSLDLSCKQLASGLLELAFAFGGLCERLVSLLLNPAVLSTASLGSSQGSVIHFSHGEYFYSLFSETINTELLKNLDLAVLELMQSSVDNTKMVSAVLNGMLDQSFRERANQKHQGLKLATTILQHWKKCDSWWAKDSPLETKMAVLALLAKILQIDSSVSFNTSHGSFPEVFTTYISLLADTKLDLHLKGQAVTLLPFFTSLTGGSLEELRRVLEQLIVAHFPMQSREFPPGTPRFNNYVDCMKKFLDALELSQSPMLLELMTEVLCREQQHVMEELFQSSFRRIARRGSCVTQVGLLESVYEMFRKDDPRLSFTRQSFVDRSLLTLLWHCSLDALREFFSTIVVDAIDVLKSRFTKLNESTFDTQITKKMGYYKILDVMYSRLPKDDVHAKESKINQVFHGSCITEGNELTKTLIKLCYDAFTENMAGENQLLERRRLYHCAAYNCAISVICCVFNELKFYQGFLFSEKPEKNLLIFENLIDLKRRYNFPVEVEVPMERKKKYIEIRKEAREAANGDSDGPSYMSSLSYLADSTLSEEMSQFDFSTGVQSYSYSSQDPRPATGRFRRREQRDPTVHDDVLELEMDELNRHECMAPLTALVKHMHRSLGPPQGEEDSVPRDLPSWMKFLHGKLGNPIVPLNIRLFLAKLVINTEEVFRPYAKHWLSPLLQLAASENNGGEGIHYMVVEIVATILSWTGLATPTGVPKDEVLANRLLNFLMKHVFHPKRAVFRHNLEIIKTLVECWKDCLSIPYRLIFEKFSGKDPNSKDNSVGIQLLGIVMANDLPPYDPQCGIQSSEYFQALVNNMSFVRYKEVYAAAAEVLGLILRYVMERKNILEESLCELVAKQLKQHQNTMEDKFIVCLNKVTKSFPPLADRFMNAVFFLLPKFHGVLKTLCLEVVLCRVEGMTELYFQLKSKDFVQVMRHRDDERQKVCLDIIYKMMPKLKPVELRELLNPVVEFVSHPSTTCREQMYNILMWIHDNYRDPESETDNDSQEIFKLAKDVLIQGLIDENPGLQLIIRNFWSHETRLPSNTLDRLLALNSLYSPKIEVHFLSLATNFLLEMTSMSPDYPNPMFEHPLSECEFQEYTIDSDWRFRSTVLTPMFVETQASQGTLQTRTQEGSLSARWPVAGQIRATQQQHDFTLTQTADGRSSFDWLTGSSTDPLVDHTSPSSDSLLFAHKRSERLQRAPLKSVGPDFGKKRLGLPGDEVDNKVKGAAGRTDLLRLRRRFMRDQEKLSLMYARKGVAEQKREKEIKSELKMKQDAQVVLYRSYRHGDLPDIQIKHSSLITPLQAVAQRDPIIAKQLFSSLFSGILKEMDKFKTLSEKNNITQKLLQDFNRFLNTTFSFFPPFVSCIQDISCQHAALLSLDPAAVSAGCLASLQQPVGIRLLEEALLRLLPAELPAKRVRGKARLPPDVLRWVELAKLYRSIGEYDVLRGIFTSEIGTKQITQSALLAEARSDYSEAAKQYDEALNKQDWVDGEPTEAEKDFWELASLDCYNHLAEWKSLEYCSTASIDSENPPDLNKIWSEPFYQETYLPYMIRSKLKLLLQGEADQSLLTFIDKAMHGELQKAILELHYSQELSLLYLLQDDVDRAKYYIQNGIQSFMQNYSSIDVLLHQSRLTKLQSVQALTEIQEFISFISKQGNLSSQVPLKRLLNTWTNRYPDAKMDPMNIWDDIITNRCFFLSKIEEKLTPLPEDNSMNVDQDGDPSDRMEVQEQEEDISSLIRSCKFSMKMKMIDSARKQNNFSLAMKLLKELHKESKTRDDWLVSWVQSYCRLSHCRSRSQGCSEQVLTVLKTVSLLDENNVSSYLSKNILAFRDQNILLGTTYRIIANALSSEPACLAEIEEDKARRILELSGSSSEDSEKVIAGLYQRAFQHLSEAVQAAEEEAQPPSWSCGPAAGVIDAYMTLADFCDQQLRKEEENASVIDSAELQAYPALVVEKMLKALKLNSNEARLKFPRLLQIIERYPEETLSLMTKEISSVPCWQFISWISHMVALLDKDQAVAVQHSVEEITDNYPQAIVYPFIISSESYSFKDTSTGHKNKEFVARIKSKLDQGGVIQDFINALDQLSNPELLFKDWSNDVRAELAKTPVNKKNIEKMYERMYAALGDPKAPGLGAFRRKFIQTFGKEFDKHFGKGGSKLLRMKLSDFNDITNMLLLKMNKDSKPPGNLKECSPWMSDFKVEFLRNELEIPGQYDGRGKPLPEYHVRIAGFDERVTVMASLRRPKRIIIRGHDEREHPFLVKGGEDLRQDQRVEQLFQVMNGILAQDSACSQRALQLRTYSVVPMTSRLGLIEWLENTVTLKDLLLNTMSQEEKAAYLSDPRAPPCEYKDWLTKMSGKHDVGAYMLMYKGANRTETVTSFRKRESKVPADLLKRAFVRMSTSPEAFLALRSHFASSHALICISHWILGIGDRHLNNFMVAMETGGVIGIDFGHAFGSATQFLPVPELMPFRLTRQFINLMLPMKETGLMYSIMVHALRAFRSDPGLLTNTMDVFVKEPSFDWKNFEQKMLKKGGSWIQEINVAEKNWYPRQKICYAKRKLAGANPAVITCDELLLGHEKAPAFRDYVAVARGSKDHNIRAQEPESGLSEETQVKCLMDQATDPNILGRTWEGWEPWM
UniProt Q6P2P2: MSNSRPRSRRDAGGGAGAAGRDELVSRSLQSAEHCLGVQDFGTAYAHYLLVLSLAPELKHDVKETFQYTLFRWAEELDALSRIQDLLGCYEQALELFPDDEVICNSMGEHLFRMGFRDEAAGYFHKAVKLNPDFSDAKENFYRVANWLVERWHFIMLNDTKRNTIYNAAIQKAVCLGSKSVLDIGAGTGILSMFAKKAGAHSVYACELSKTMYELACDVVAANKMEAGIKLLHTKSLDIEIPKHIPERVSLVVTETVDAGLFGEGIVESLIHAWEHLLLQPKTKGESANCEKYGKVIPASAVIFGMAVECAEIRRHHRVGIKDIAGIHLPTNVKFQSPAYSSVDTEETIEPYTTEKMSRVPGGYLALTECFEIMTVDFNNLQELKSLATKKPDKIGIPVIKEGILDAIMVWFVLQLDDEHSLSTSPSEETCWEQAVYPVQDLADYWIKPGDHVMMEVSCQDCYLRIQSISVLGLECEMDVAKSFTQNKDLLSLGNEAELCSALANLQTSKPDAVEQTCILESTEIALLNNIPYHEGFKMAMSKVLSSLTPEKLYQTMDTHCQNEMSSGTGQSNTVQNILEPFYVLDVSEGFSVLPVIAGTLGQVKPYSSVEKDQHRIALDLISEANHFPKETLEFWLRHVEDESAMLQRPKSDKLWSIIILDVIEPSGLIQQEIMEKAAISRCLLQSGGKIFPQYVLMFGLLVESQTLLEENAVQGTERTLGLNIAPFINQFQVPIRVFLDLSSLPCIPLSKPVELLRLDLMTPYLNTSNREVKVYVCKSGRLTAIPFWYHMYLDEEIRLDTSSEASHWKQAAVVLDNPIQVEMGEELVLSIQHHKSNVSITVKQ
UniProt Q86W92, 916-939: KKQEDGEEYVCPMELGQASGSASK
UniProt O14802: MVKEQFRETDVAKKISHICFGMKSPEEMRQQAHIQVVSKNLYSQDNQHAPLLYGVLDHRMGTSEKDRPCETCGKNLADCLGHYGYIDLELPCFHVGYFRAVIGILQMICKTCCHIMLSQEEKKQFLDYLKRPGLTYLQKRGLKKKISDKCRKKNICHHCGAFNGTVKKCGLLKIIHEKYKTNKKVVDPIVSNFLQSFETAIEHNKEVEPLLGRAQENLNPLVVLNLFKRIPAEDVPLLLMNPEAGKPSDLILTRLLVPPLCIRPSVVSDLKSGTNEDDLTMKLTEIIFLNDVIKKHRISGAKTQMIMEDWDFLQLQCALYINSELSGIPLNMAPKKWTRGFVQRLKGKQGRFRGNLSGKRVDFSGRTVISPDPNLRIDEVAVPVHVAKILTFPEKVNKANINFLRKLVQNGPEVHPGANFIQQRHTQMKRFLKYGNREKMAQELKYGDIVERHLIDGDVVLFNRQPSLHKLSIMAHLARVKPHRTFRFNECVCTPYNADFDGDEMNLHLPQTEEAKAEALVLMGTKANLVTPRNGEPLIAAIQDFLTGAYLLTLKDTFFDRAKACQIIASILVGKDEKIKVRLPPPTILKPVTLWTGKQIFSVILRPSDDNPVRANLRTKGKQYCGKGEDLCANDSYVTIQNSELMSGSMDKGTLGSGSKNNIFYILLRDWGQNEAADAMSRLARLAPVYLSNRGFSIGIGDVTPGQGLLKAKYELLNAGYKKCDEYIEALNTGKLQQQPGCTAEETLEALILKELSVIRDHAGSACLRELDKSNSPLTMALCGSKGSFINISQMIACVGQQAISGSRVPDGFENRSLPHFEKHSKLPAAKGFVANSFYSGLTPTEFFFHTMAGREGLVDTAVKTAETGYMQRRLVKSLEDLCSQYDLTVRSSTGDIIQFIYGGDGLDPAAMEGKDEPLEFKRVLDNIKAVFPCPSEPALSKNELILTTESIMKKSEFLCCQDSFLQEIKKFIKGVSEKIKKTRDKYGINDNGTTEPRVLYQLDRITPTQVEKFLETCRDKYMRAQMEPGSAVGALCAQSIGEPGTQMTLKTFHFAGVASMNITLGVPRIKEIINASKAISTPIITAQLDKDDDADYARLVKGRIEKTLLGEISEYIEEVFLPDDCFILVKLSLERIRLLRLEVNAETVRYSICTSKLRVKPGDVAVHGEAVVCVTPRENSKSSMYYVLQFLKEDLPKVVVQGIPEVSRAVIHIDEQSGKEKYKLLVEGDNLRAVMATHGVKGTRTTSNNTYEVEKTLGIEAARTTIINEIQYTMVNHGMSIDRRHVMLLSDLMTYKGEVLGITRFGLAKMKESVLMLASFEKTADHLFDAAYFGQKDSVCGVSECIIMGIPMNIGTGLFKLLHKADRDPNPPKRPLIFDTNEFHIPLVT
UniProt P0CG38, 916-938: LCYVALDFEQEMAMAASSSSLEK

Target | log2 mean competition ratio
POM121 C613 (UniProt Q96HA1) | -0.152
PPIG C549 (UniProt Q13427) | 0.13
PRR14L C1224 (UniProt Q5THK1) | 0.0216
PRKCD C280 (UniProt Q05655) | -0.154
PPP6R3 C216 (UniProt Q5H9R7) | 0.118
POLR3C C160 (UniProt Q9BUI4) | -0.202
PPP2R2A C398 | -0.432
PPP2R5C C408 (UniProt Q13362) | -0.135
POLR3E C456 (UniProt Q9NVU0) | -0.000518
PRPF6 C901 (UniProt O94906) | 0.0744
PRKDC C2244 (UniProt P78527) | -0.476
PRMT9 C683 (UniProt Q6P2P2) | 0.112
POLR2M C82 | 0.284
PPIB C202 (UniProt P23284) | -0.0532
PPP2R1B C186 | 0.0929
PRMT9 C290 (UniProt Q6P2P2) | 0.193
PPP6R3 C37 (UniProt Q5H9R7) | -0.177
POLR3B C687 (UniProt Q9NW08) | 0.122
PPP4C C52 (UniProt P60510) | -0.174
PRMT5 C22 (UniProt O14744) | -0.106
PRKDC C795 (UniProt P78527) | 0.215
PPP2R1A C390 (UniProt P30153) | 0.28
PRKG1 C158 (UniProt Q13976) | -0.058
PPFIBP1 C926 (UniProt Q86W92) | -0.016
PPP2R5A C359 (UniProt Q15172) | -0.12
POLR3A C724 (UniProt O14802) | 0.143
POTEI C917 (UniProt P0CG38) | -0.119

Look-ups from the list.
log2 mean competition ratio, PPIB C202 (UniProt P23284) is entered as -0.0532
log2 mean competition ratio, PPP2R5C C408 (UniProt Q13362) is entered as -0.135

Reference: the supplement of paper PMC11732987, “Enantioselective OTUD7B fragment discovery through chemoproteomics screening and high-throughput optimisation” (Communications Chemistry, 2025)
